Assay results as given in the supplement of paper PMC11732987, “Enantioselective OTUD7B fragment discovery through chemoproteomics screening and high-throughput optimisation” (Communications Chemistry, 2025).
Some of the results follow. The data scatter; read single values as rough.

By UniProt entry, the sequences of proteins in these tests, tags left out. Where a name states a change or a piece, a line headed by the entry shows the natural chain unless it says otherwise.
UniProt Q9Y6I9: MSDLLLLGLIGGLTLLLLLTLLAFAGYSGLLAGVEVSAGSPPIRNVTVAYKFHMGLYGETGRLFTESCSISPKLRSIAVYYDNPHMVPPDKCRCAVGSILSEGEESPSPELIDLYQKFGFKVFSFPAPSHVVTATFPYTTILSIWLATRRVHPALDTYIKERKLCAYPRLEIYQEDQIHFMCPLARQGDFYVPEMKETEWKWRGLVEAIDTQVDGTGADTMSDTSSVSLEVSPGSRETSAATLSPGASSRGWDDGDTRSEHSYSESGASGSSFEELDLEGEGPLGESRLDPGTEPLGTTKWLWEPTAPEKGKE
UniProt P37802: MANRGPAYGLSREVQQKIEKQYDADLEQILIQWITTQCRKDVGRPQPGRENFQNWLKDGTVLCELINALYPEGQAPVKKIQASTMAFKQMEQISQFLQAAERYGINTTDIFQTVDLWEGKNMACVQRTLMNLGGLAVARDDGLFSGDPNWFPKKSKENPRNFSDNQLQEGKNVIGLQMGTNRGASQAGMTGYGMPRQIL
UniProt Q66K14, whole entry, looked up: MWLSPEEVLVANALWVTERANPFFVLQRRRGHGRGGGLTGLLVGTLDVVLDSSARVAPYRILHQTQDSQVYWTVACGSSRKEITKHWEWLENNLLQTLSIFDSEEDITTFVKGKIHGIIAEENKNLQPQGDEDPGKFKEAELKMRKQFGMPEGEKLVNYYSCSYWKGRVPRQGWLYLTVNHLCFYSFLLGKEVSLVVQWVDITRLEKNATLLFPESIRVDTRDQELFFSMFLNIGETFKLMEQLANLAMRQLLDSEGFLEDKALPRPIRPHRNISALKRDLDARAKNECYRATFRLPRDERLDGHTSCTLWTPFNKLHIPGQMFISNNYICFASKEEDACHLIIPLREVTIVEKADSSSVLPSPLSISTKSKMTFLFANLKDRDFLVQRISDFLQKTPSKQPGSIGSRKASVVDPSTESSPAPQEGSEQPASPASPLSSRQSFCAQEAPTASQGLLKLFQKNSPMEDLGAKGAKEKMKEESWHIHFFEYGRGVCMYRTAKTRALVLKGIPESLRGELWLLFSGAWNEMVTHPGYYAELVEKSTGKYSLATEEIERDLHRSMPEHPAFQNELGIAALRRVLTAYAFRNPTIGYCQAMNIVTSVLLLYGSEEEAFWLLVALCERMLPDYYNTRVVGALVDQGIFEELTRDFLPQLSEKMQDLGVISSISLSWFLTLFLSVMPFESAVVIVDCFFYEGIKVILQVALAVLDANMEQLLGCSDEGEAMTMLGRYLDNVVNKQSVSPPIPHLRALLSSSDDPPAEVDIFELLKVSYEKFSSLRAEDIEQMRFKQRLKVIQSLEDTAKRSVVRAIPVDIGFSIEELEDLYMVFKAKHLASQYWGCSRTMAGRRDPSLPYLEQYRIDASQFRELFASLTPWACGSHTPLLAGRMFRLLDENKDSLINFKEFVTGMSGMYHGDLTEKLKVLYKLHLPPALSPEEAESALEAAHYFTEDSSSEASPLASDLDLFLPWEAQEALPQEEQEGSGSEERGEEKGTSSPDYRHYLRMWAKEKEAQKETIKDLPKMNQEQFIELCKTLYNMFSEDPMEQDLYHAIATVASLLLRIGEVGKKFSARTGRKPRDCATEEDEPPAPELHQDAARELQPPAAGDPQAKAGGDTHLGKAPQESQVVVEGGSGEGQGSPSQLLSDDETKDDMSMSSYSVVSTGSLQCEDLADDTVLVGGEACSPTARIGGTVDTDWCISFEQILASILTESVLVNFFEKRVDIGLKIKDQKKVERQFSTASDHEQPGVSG
UniProt Q5VWN6: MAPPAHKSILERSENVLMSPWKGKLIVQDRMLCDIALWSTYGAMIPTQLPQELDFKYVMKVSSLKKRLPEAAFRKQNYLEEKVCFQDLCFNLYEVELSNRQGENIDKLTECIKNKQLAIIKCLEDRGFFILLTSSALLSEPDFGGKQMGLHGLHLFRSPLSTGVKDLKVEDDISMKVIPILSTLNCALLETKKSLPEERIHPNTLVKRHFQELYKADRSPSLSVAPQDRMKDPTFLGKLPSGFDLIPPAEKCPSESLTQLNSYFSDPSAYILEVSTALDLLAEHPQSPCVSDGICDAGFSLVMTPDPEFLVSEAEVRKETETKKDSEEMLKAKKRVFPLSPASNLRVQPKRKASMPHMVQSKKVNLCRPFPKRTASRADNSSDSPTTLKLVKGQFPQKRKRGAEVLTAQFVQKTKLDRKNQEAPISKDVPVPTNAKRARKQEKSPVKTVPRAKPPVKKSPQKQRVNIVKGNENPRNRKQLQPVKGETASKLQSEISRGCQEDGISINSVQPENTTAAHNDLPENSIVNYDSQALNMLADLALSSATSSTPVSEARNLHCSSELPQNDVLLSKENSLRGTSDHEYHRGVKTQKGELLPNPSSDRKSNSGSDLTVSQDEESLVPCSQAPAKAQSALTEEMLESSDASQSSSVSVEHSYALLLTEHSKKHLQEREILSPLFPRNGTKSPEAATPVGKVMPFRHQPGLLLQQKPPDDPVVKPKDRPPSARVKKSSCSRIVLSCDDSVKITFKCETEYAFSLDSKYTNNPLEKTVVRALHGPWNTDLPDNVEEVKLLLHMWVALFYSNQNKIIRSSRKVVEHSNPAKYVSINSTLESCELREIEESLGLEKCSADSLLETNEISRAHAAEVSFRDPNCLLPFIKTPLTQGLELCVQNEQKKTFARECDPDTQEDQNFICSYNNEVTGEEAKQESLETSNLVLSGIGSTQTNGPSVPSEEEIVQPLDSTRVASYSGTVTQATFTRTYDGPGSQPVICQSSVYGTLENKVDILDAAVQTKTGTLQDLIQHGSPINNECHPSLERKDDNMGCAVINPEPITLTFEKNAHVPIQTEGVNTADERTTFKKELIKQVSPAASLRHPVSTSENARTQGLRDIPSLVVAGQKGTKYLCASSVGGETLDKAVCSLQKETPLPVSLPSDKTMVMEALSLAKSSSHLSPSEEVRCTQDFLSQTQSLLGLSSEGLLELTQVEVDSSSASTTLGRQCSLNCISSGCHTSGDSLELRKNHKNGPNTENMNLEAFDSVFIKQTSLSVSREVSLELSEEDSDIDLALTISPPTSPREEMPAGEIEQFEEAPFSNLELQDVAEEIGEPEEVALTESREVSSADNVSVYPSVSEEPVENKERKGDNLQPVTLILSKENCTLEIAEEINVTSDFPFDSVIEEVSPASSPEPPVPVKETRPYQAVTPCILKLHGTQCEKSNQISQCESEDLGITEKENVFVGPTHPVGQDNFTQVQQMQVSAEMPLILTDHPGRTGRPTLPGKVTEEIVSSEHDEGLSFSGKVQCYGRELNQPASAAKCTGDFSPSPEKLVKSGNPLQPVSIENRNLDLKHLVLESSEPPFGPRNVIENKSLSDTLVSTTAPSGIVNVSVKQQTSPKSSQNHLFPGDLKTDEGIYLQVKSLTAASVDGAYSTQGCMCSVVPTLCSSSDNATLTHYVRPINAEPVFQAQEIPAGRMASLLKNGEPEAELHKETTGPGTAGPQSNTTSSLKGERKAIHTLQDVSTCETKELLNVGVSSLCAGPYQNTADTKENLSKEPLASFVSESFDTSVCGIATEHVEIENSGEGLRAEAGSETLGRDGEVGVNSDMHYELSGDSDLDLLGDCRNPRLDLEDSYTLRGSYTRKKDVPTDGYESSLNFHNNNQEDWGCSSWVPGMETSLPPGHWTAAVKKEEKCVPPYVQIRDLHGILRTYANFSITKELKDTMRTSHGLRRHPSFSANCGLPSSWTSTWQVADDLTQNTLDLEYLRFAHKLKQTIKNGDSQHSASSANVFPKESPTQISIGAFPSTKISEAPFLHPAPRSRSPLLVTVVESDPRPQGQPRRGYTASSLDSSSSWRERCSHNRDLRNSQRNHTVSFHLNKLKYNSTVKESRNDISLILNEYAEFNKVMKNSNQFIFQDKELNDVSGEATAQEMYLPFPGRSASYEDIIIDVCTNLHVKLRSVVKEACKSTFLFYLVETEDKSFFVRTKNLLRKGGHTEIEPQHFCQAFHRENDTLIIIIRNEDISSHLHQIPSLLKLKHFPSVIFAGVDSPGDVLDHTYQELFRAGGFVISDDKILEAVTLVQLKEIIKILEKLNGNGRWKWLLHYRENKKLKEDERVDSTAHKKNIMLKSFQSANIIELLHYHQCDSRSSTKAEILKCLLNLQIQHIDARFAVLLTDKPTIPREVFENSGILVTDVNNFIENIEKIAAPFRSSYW
UniProt P17987, whole entry, looked up: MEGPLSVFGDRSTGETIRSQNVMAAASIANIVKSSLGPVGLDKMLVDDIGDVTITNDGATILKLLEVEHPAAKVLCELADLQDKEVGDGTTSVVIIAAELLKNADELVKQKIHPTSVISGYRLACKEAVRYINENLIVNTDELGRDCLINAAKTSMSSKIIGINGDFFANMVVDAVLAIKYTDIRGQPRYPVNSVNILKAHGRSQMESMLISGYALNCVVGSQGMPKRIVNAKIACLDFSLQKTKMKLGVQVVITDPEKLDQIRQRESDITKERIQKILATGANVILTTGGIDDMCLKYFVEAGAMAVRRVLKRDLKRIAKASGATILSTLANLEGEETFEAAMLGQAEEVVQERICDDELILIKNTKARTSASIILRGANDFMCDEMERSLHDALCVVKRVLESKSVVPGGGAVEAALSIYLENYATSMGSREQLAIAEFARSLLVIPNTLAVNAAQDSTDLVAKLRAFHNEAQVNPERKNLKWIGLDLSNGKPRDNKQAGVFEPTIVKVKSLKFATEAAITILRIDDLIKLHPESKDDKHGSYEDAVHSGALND
UniProt Q13395: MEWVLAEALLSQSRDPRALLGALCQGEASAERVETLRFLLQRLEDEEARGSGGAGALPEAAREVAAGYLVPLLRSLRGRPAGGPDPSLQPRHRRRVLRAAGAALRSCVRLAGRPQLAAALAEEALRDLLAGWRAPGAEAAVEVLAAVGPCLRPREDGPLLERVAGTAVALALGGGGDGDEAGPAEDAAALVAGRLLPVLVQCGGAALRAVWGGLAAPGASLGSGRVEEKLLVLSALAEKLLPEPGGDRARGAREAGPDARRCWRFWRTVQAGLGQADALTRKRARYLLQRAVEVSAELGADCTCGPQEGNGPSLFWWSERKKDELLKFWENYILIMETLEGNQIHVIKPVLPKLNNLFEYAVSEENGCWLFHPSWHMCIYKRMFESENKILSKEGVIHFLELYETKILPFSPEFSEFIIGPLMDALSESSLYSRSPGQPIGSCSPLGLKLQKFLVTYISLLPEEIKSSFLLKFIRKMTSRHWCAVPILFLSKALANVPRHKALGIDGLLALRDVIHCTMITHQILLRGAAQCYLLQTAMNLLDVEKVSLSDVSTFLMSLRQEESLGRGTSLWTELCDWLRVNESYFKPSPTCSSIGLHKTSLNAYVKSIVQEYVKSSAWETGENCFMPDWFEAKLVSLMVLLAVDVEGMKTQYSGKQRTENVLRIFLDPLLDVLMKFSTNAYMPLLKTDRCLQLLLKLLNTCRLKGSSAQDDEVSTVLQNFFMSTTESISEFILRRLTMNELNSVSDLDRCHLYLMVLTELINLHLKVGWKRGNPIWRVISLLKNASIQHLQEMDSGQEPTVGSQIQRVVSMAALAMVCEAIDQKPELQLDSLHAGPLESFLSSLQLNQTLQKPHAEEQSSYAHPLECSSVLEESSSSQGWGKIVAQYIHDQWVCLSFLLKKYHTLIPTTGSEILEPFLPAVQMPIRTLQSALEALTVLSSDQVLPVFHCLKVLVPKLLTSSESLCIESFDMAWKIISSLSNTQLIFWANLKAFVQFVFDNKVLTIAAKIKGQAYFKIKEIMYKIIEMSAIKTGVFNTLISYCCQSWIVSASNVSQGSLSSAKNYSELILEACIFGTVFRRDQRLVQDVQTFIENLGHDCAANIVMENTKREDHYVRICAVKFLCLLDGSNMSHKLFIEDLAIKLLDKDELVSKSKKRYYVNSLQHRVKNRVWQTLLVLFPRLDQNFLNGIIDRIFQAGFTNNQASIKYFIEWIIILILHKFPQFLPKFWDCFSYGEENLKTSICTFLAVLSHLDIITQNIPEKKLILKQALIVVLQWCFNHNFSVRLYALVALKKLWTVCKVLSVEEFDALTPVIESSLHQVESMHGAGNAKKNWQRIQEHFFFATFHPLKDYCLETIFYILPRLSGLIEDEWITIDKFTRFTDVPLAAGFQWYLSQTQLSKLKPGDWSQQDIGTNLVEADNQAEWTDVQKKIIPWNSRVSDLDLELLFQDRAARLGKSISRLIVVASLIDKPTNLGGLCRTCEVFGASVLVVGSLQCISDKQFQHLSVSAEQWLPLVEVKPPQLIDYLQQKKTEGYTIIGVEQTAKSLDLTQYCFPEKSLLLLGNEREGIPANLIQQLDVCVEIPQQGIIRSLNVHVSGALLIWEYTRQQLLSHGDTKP

Columns and labels:
[1] = compound: ClCC(=O)N[C@@H]1CCCc2ccccc12; assay: log2 mean competition ratio of IA-DTB cysteine labelling (DMSO/compound) (log2 ratio); higher = stronger cysteine engagement by compound; conditions: treatment time: 4 h, cell line lysate: HEK293T
Procedure: (§1)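 IA-DTB competitive cysteine chemoproteomics in HEK293T RIPA lysate. Lysates were treated with compound 29 or 30 at 50 or 200 µM for 4 h, then IA-DTB (500 µM, 1 h), trypsin-digested, NeutrAvidin-enriched and analysed by diaPASEF. Competition ratio = intensity DMSO / intensity compound (n=4 treated, n=64 DMSO); binding: mean log2 CR ≥ 1 and p ≤ 0.05 plus QC filters. Target is the cysteine site.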

[2] = compound: ClCC(=O)N[C@H]1CCCc2ccccc12; assay: as above; conditions: treatment time: 4 h, cell line lysate: HEK293T
Procedure: as §1

Target | log2 mean competition ratio ([1]; 50 µM) | log2 mean competition ratio ([1]; 200 µM) | log2 mean competition ratio ([2]; 50 µM) | log2 mean competition ratio ([2]; 200 µM)
TACC3 C206 | 0.0234 | 0.103 | 0.244 | 0.375
TFB1M C304 (UniProt Q8WVM0) | 0.127 | 0.0371 | 0.0682 | 0.00995
TEDC1 C417 (UniProt Q86SX3) | -0.212 | -0.102 | – | -0.235
TFAM C246 (UniProt Q00059) | -0.146 | 0.142 | -0.139 | 0.187
TEX264 C165 (UniProt Q9Y6I9) | 0.456 | 0.0659 | 0.289 | 0.266
TARDBP C50 | 0.127 | 0.283 | 0.0666 | 0.139
TBC1D7 C195 (UniProt Q9P0N9) | -0.284 | 0.148 | 0.156 | -0.78
TAGLN2 C124 (UniProt P37802) | 0.0723 | -0.236 | 0.357 | -0.226
TAF6L C230 (UniProt Q9Y6J9) | 0.25 | 0.352 | -0.752 | 0.0704
TBC1D9B C340 (UniProt Q66K14) | -0.0575 | -0.321 | -0.28 | -0.0759
TADA2A C384 (UniProt O75478) | 0.0498 | 0.247 | – | 0.293
TBC1D12 C109 (UniProt O60347) | -0.152 | 0.176 | 0.127 | 0.238
TAF1D C36 | 0.128 | -0.333 | 0.328 | -0.19
TCAF1 C126 (UniProt Q9Y4C2) | -0.17 | 0.143 | -0.329 | 0.0958
TAPR1 C259 | -0.00236 | -0.0718 | -0.206 | 0.0141
TAX1BP1 C525 (UniProt Q86VP1) | -0.0151 | -0.0143 | 0.166 | 0.124
TASOR2 C1125 (UniProt Q5VWN6) | -0.0999 | 0.114 | 0.111 | 0.14
TCP1 C236 (UniProt P17987) | 0.393 | -0.112 | 0.0075 | -0.0504
SZT2 C2453 (UniProt Q5T011) | -0.115 | 0.0764 | -0.11 | 0.222
TAF1C C432 (UniProt Q15572) | -0.0445 | 0.12 | -0.0928 | -0.000472
SYTL4 C477 (UniProt Q96C24) | 0.0781 | -0.27 | – | 0.2
TBRG4 C246 (UniProt Q969Z0) | -0.281 | 0.71 | 0.0619 | 0.352
TBC1D9B C839 (UniProt Q66K14) | 0.367 | 0.613 | 0.478 | 0.58

Nothing new here: an excerpt of the list.
Target | log2 mean competition ratio ([1]; 50 µM) | log2 mean competition ratio ([1]; 200 µM) | log2 mean competition ratio ([2]; 50 µM) | log2 mean competition ratio ([2]; 200 µM)
TAPR1 C259 | -0.00236 | -0.0718 | -0.206 | 0.0141
TAX1BP1 C525 (UniProt Q86VP1) | -0.0151 | -0.0143 | 0.166 | 0.124
TASOR2 C1125 (UniProt Q5VWN6) | -0.0999 | 0.114 | 0.111 | 0.14
TCP1 C236 (UniProt P17987) | 0.393 | -0.112 | 0.0075 | -0.0504

Remaining list, next part.

Target | log2 mean competition ratio ([1]; 50 µM) | log2 mean competition ratio ([1]; 200 µM) | log2 mean competition ratio ([2]; 50 µM) | log2 mean competition ratio ([2]; 200 µM)
TANC2 C224 (UniProt Q9HCD6) | -0.0112 | -0.0247 | -0.0378 | -0.000858
TAF4B C719 (UniProt Q92750) | -0.0483 | -0.101 | 0.484 | 0.305
TBC1D5 C706 (UniProt Q92609) | -0.302 | 0.163 | 0.0556 | 0.0186
TASOR2 C1739 (UniProt Q5VWN6) | -0.764 | 0.0619 | -0.374 | 0.138
TBL2 C108 (UniProt Q9Y4P3) | -0.0796 | -0.0612 | 0.171 | -0.0196
TBX2 C356 | 0.041 | 0.123 | 0.335 | 0.0197
TACC2 C2859 (UniProt O95359) | 0.256 | 0.123 | – | 0.141
TBC1D9B C289 (UniProt Q66K14) | 0.0235 | 0.0983 | 0.16 | 0.0613
TAF5 C632 (UniProt Q15542) | -0.0186 | 0.322 | -0.285 | 0.0844
TANC1 C557 (UniProt Q9C0D5) | -0.114 | -0.193 | -0.264 | -0.178
TARBP1 C1556 (UniProt Q13395) | 0.0295 | -0.283 | -0.325 | -0.174
TASOR C1245 (UniProt Q9UK61) | -0.175 | 0.082 | -0.191 | -0.147
TBL3 C444 (UniProt Q12788) | -0.23 | -0.39 | -0.279 | -0.24
TATDN2 C19 (UniProt Q93075) | 0.159 | 0.256 | 0.317 | 0.0803
THOC2 C931 | 0.139 | -0.0844 | 0.465 | 0.0775
TACC1 C174 (UniProt O75410) | 0.0606 | -0.154 | 0.279 | -0.172
TEX264 C182 (UniProt Q9Y6I9) | -0.142 | 0.575 | -0.372 | 0.326
TACC3 C426 | -0.0612 | -0.0672 | -0.0961 | 0.0496
TBC1D1 C336 (UniProt Q86TI0) | 0.221 | 0.326 | -0.224 | 0.213
TCF20 C498 (UniProt Q9UGU0) | 0.301 | -0.172 | -0.125 | -0.291
TBC1D4 C156 (UniProt O60343) | 0.0692 | 0.0751 | 0.0554 | -0.00147
TANC1 C1136 (UniProt Q9C0D5) | -0.386 | -0.137 | -0.246 | 0.209
